This is one part of the list.
Experiment: inhibitors of IL-1B driven NFkB p65 nuclear import, primary screen, imaging, HUVEC, IL-1B stimulus, high-content imaging (AID 796)
Conditions: HUVEC IL-1B NFkB p65 nuclear translocation imaging; cells passing quality filter; at 2 µM; stronger effect = lower value

| Structure (SMILES) | cell count |
| --- | --- |
| COc1ccc(NC2CCN(CCc3ccccc3)CC2)c(OC)c1 | 135 |
| O=C(NCC1(N2CCOCC2)CCCCC1)c1cc2ccccc2o1 | 188 |
| O=C(OC1CN2CCC1CC2)C1c2ccccc2Oc2ccccc21 (stereo not given) | 108 |
| CN1CCC(Nc2cccc(F)c2)CC1 | 95 |
| N#CC1(Nc2ccccc2)CCN(CCc2ccccc2)CC1 | 141 |
| O=C(NCC1(N2CCOCC2)CCCCC1)c1cc(=O)[nH]c2ccccc12 | 194 |
| c1ccc(CN2CCC(Nc3ccccc3)CC2)cc1 | 86 |
| N/C(=N\O)c1c(N)no[n+]1[O-] | 194 |
| CCOc1ncccc1C(=O)NCC1(N2CCOCC2)CCCCC1 | 80 |
| CCC(CO)(C(=O)OC1CN2CCC1CC2)c1ccccc1 (stereo not given) | 68 |
